{"source": "PubChem BioAssay AID1259425 – University of Nebraska Medical Center | 2018", "assay": "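Compare each knockdown with KSR1 silencing using changes in marker transcripts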 (primary screen)", "cell system": "HCT116 human colon cancer cells", "reagents": "siRNA pool against human genes, 50 nM siRNA", "detection": "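After 50 nM siRNA pool, branched-DNA assay measures six marker transcripts per well, minus blank, normalised to the geometric mean of two housekeeping transcripts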", "direction": "BNIP3L mRNA: higher = more BNIP3L transcript after knockdown; NDRG1 mRNA: higher = more NDRG1 transcript after knockdown", "note": "In all, the deposit lists about 14,000 reagents; this is a part drawn at random. Reagents against one gene are numbered here. Further read-outs or replicates are left out here. Reagent sequences are not shown. Not given: the time to read-out."}
{"Gene":"ANKZF1","reagent":1,"BNIP3L mRNA, set 1":0.164,"NDRG1 mRNA, set 1":0.788}
{"Gene":"CEP126","reagent":1,"BNIP3L mRNA, set 1":0.0785,"NDRG1 mRNA, set 1":0.11}
{"Gene":"MERTK","reagent":1,"BNIP3L mRNA, set 1":0.0771,"NDRG1 mRNA, set 1":0.111}
{"Gene":"SUMO1","reagent":1,"BNIP3L mRNA, set 1":0.143,"NDRG1 mRNA, set 1":0.557}
{"Gene":"THSD1","reagent":1,"BNIP3L mRNA, set 1":0.177,"NDRG1 mRNA, set 1":0.142}
{"Gene":"RESF1","reagent":1,"BNIP3L mRNA, set 1":0.0404,"NDRG1 mRNA, set 1":0.136}
{"Gene":"ADAMTSL4","reagent":1,"BNIP3L mRNA, set 1":0.158,"NDRG1 mRNA, set 1":0.323}
{"Gene":"ADAMTSL4","reagent":2,"BNIP3L mRNA, set 1":0.14,"NDRG1 mRNA, set 1":0.275}
{"Gene":"ZNF547","reagent":1,"BNIP3L mRNA, set 1":0.0539,"NDRG1 mRNA, set 1":0.0726}
{"Gene":"INHBA","reagent":1,"BNIP3L mRNA, set 1":0.108,"NDRG1 mRNA, set 1":0.102}
{"Gene":"PTPRN2","reagent":1,"BNIP3L mRNA, set 1":0.0477,"NDRG1 mRNA, set 1":0.17}
{"Gene":"CIRBP","reagent":1,"BNIP3L mRNA, set 1":0.137,"NDRG1 mRNA, set 1":0.118}
{"Gene":"SF1","reagent":1,"BNIP3L mRNA, set 1":0.22,"NDRG1 mRNA, set 1":0.213}
{"Gene":"TOM1","reagent":1,"BNIP3L mRNA, set 1":0.0828,"NDRG1 mRNA, set 1":0.286}
{"Gene":"IRX4","reagent":1,"BNIP3L mRNA, set 1":0.256,"NDRG1 mRNA, set 1":0.155}
{"Gene":"SAMSN1","reagent":1,"BNIP3L mRNA, set 1":0.0706,"NDRG1 mRNA, set 1":0.196}
{"Gene":"NDUFS8","reagent":1,"BNIP3L mRNA, set 1":0.108,"NDRG1 mRNA, set 1":0.255}
{"Gene":"TREML2","reagent":1,"BNIP3L mRNA, set 1":0.15,"NDRG1 mRNA, set 1":0.346}
{"Gene":"ADAM17","reagent":1,"BNIP3L mRNA, set 1":0.0799,"NDRG1 mRNA, set 1":0.175}
{"Gene":"UBR4","reagent":1,"BNIP3L mRNA, set 1":0.132,"NDRG1 mRNA, set 1":0.13}
{"Gene":"PKN3","reagent":1,"BNIP3L mRNA, set 1":0.163,"NDRG1 mRNA, set 1":0.132}
{"Gene":"SIT1","reagent":1,"BNIP3L mRNA, set 1":0.101,"NDRG1 mRNA, set 1":0.443}
{"Gene":"SYPL1","reagent":1,"BNIP3L mRNA, set 1":0.11,"NDRG1 mRNA, set 1":0.185}
{"Gene":"MIS18A","reagent":1,"BNIP3L mRNA, set 1":0.2,"NDRG1 mRNA, set 1":0.581}
{"Gene":"WNK3","reagent":1,"BNIP3L mRNA, set 1":0.083,"NDRG1 mRNA, set 1":0.162}
{"Gene":"WFDC1","reagent":1,"BNIP3L mRNA, set 1":0.118,"NDRG1 mRNA, set 1":0.0827}
{"Gene":"ARFIP1","reagent":1,"BNIP3L mRNA, set 1":0.0703,"NDRG1 mRNA, set 1":0.192}
{"Gene":"ABHD16A","reagent":1,"BNIP3L mRNA, set 1":0.0629,"NDRG1 mRNA, set 1":0.248}
{"Gene":"TMEM25","reagent":1,"BNIP3L mRNA, set 1":0.122,"NDRG1 mRNA, set 1":0.149}
{"Gene":"GSDME","reagent":1,"BNIP3L mRNA, set 1":0.113,"NDRG1 mRNA, set 1":0.115}
{"Gene":"MPP4","reagent":1,"BNIP3L mRNA, set 1":0.122,"NDRG1 mRNA, set 1":0.0612}
{"Gene":"STK38","reagent":1,"BNIP3L mRNA, set 1":0.249,"NDRG1 mRNA, set 1":0.306}
{"Gene":"GNAO1","reagent":1,"BNIP3L mRNA, set 1":0.168,"NDRG1 mRNA, set 1":0.231}
{"Gene":"KIAA0087","reagent":1,"BNIP3L mRNA, set 1":0.259,"NDRG1 mRNA, set 1":0.765}
{"Gene":"PHYH","reagent":1,"BNIP3L mRNA, set 1":0.203,"NDRG1 mRNA, set 1":0.141}
{"Gene":"PLCH1","reagent":1,"BNIP3L mRNA, set 1":0.123,"NDRG1 mRNA, set 1":0.0285}

Entries above whose gene name begins with A or a (6):
{"Gene":"ANKZF1","reagent":1,"BNIP3L mRNA, set 1":0.164,"NDRG1 mRNA, set 1":0.788}
{"Gene":"ADAMTSL4","reagent":1,"BNIP3L mRNA, set 1":0.158,"NDRG1 mRNA, set 1":0.323}
{"Gene":"ADAMTSL4","reagent":2,"BNIP3L mRNA, set 1":0.14,"NDRG1 mRNA, set 1":0.275}
{"Gene":"ADAM17","reagent":1,"BNIP3L mRNA, set 1":0.0799,"NDRG1 mRNA, set 1":0.175}
{"Gene":"ARFIP1","reagent":1,"BNIP3L mRNA, set 1":0.0703,"NDRG1 mRNA, set 1":0.192}
{"Gene":"ABHD16A","reagent":1,"BNIP3L mRNA, set 1":0.0629,"NDRG1 mRNA, set 1":0.248}
